In article PMC8384837:
Residue numbers refer to the chain shown, from its start. Some of the results follow. For part of these data: At the low end of the ranking, values are background and their order means little. For part of these data: The source does not settle which construct or isoform was used.

Legend:
Conditions in all cases: yeast three-hybrid, YBZ-1, SC-Leu-His + 0.5 mM 3-AT, 4 days
[1] = target: T1, PUM1 PUF domain R1-QFR R2-VFQ R7-NPG S863Q + R864F + Q867R + N899V + Y900F + S1079N + N1080P + E1083G (UniProt Q14671)
T1 sequence: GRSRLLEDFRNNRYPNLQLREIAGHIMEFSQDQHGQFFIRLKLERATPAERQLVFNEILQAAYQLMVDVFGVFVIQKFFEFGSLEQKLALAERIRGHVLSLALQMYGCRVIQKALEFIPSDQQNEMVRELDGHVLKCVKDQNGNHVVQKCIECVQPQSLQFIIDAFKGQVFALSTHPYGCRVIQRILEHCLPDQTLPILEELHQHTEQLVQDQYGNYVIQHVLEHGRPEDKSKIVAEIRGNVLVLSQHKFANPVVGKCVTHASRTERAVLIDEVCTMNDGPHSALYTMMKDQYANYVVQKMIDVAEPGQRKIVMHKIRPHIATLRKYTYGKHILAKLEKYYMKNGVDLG

[2] = target: T2, PUM1 PUF domain R2-VFQ R3-THE R4-TFR N899V + Y900F + C935T + R936H + Q939E + N971T + H972F + Q975R (UniProt Q14671)
T2 sequence: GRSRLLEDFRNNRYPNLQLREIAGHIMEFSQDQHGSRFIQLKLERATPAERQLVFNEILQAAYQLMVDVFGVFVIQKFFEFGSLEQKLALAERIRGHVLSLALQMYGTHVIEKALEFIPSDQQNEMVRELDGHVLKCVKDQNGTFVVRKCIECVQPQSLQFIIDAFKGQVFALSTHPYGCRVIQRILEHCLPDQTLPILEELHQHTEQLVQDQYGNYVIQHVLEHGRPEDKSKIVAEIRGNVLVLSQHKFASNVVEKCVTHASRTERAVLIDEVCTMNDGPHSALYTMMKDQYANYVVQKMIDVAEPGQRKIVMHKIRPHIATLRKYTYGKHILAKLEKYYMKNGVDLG

[3] = target: T3, PUM1 PUF domain R3-THE R4-TFR C935T + R936H + Q939E + N971T + H972F + Q975R (UniProt Q14671)
T3 sequence: T2 sequence with V72N, F73Y

[4] = target: T4, PUM1 PUF domain R3-THE R4-TFR R7-NPG C935T + R936H + Q939E + N971T + H972F + Q975R + S1079N + N1080P + E1083G (Homo sapiens) (UniProt Q14671)
T4 sequence: T2 sequence with V72N, F73Y, S252N, N253P, E256G

[5] = target: T5, PUM1 PUF domain R5-PHQ R6-SWD C1007P + R1008H + N1043S + Y1044W + Q1047D (UniProt Q14671)
T5 sequence: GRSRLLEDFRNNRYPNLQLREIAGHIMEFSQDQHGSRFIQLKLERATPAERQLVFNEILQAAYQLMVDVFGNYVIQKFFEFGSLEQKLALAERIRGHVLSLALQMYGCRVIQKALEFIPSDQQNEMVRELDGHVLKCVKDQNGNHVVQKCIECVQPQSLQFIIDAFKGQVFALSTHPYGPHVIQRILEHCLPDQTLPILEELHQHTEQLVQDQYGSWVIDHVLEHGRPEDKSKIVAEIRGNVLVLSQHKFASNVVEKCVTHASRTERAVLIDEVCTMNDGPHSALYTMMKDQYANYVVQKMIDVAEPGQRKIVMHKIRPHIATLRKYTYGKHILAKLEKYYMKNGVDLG

GGCUAGAACUAGUGGAUCCCCCGGCGCCCGGCGGCUCGAGCCCGGGUAAGACACAGUAGUCUGCAUGCCGCCGGGCGCCAUGCCUGCAGGUCGACUCUAGAAAACAUG
binding signal (log2 enrichment (interaction score)) [1]: -6.66 | binding signal (log2 enrichment (interaction score)) [2]: -4.77 | binding signal (log2 enrichment (interaction score)) [3]: -6.55

GGCUAGAACUAGUGGAUCCCCCGGCGCCCGGCGGCUCGAGCCCGGGUAAGUUUACGGCGUCUGCAUGCCGCCGGGCGCCAUGCCUGCAGGUCGACUCUAGAAAACAUG
binding signal (log2 enrichment (interaction score)) [1]: < -6.43 | binding signal (log2 enrichment (interaction score)) [2]: -4.4 | binding signal (log2 enrichment (interaction score)) [3]: -6.39 | binding signal (log2 enrichment (interaction score)) [4]: -0.32

GGCUAGAACUAGUGGAUCCCCCGGCGCCCGGCGGCUCGAGCCCGGGUAAGUAUACAAAGUCUGCAUGCCGCCGGGCGCCAUGCCUGCAGGUCGACUCUAGAAAACAUG
binding signal (log2 enrichment (interaction score)) [1]: -4.28 | binding signal (log2 enrichment (interaction score)) [2]: -5.51 | binding signal (log2 enrichment (interaction score)) [3]: -7.52 | binding signal (log2 enrichment (interaction score)) [4]: -1.39 | binding signal (log2 enrichment (interaction score)) [5]: -8.73

GGCUAGAACUAGUGGAUCCCCCGGCGCCCGGCGGCUCGAGCCCGGGUAAGAGUGAGUUGUCUGCAUGCCGCCGGGCGCCAUGCCUGCAGGUCGACUCUAGAAAACAUG
binding signal (log2 enrichment (interaction score)) [1]: -5.4 | binding signal (log2 enrichment (interaction score)) [2]: -6.05 | binding signal (log2 enrichment (interaction score)) [3]: < -7.59
